From US20100204091A1
Results are given in words; binding and its absence hold for the method and conditions named. Binding seen in cells or lysates may run through a third protein. Some entries that bind do so weakly or less than the wild type.

Chains of the proteins cited; added tags and fusions are not shown.
UniProt Q99558: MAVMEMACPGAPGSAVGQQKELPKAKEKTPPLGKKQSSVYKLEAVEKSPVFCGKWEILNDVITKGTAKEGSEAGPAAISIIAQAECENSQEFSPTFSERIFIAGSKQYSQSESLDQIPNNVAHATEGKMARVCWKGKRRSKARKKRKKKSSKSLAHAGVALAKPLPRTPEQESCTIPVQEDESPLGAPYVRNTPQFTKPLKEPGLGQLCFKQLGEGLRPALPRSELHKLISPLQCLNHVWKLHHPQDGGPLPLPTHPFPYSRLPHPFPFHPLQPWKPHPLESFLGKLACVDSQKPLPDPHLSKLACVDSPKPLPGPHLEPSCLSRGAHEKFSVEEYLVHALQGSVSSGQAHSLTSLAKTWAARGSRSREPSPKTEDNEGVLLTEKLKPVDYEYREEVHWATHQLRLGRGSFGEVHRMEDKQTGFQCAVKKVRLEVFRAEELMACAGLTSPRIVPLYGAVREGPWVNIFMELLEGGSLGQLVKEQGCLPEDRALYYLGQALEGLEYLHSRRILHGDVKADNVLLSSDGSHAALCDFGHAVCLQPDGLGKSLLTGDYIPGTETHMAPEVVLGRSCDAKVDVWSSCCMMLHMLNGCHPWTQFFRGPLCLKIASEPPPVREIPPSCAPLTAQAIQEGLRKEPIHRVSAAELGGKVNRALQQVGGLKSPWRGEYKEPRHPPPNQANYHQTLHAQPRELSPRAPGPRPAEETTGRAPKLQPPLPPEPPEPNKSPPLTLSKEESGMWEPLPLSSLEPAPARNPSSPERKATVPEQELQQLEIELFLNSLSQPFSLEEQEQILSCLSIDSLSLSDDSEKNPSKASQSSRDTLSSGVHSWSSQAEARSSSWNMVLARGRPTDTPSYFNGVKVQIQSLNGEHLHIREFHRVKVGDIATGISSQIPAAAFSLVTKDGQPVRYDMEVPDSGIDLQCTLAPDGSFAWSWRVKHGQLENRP

Experiments:
SIVA2 (human) [1] = biological target: T1, SIVA2 (human) (UniProt O15304); assay: co-precipitation of NIK, SIVA2 and TRAF3 from transiently transfected HEK 293T cells (anti FLAG IP of SIVA2, anti-TRAF3 blot)
T1 sequence: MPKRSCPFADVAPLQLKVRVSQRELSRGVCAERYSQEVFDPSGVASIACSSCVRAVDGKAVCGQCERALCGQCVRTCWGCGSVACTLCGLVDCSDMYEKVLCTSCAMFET

SIVA2 (human) [2] = biological target: T1, SIVA2 (human); assay: co-immunoprecipitation with anti-NIK from HeLa cells, SIVA2 blot
SIVA2 (human) [3] = biological target: T1, SIVA2 (human); assay: co-immunoprecipitation from transiently transfected HEK-293T cells

Measured: binding

NF-κB-inducing kinase, NIK, (MAP3K14) (from UniProt Q99558 1-947) (enzyme)
binds: all assays above
